Measurements reported in PubChem BioAssay AID1508597 (Cure First, 2020)

Test: 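Genes whose silencing sensitises or protects ovarian cancer cells against rucaparib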 (primary screen)
Cell system: human ovarian carcinoma lines grown from tumours: OCI-P5x (papillary serous) and OCI-C5x (clear cell)
Knock-down reagent: siRNA pool against human genes, 1.25 pmol siRNA per well
Time to read-out: 72 h or 96 h, depending on the cell culture
Treatment: rucaparib 20 µM (about IC30) or vehicle, present until read-out
Rucaparib or vehicle: Rucaparib
Cell line: OCI-P5x (serous)
Detection: 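ATP luminescence measured at 72 or 96 h according to the culture, then normalised and expressed as percent viability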
Scale: viability, normalised: higher = more viable cells remaining
Active means: 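a well counts as a hit if its normalised viability is under 80 percent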
Calls: active = viability under 80%; inactive = viability 80% or more
Shown is a random part of the about 2,100 reagents, in one setting of the screen. 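Calls flag viability under 80% in either arm, not effects specific to rucaparib; the reference for percent is not stated.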 Unmarked entries are inactive. A reagent listed more than once was tested more than once; the source does not tell the runs apart. No sequences are given here. Not given: the 100% reference.

Which result is listed for TPK1 (thiamin pyrophosphokinase 1), technical replicate 1?
viability, normalised (%): 90.3

How did the screen score TPK1 (thiamin pyrophosphokinase 1), technical replicate 2?
viability, normalised (%): 84.6

For TPK1 (thiamin pyrophosphokinase 1), technical replicate 3, what was measured?
viability, normalised (%): 67.1 (active)

With ELAC1 (elaC ribonuclease Z 1), technical replicate 1, how do the results read?
viability, normalised (%): 45 (active)

For ELAC1 (elaC ribonuclease Z 1), technical replicate 2, what does the deposit list?
viability, normalised (%): 41.4 (active)

How did the screen score ELAC1 (elaC ribonuclease Z 1), technical replicate 3?
viability, normalised (%): 49.1 (active)

For ZSCAN20 (zinc finger and SCAN domain containing 20), technical replicate 1, what was measured?
viability, normalised (%): 56 (active)

How did the screen score ZSCAN20 (zinc finger and SCAN domain containing 20), technical replicate 2?
viability, normalised (%): 56 (active)

For ZSCAN20 (zinc finger and SCAN domain containing 20), technical replicate 3, how do the results read?
viability, normalised (%): 46.6 (active)

Which result is listed for STK40 (serine/threonine kinase 40), technical replicate 1?
viability, normalised (%): 129

For STK40 (serine/threonine kinase 40), technical replicate 2, what was measured?
viability, normalised (%): 117

For STK40 (serine/threonine kinase 40), technical replicate 3, what does the deposit list?
viability, normalised (%): 112

For MAPK13 (mitogen-activated protein kinase 13), technical replicate 1, how do the results read?
viability, normalised (%): 96.2

With MAPK13 (mitogen-activated protein kinase 13), technical replicate 2, what does the deposit list?
viability, normalised (%): 43.8 (active)

For MAPK13 (mitogen-activated protein kinase 13), technical replicate 3, how do the results read?
viability, normalised (%): 73.1 (active)

Which result is listed for DDX5 (DEAD-box helicase 5), technical replicate 1?
viability, normalised (%): 66.8 (active)

How did the screen score DDX5 (DEAD-box helicase 5), technical replicate 1?
viability, normalised (%): 71.1 (active)

What is on record for DDX5 (DEAD-box helicase 5), technical replicate 2?
viability, normalised (%): 76.2 (active)

Which result is listed for DDX5 (DEAD-box helicase 5), technical replicate 2?
viability, normalised (%): 103

How did the screen score DDX5 (DEAD-box helicase 5), technical replicate 3?
viability, normalised (%): 85.2

With DDX5 (DEAD-box helicase 5), technical replicate 3, how do the results read?
viability, normalised (%): 104

With RPL3 (ribosomal protein L3), technical replicate 1, what was measured?
viability, normalised (%): 50.8 (active)

What is on record for RPL3 (ribosomal protein L3), technical replicate 2?
viability, normalised (%): 54.4 (active)

Which result is listed for RPL3 (ribosomal protein L3), technical replicate 3?
viability, normalised (%): 55.3 (active)

For ZCWPW1 (zinc finger CW-type and PWWP domain containing 1), technical replicate 1, what was measured?
viability, normalised (%): 54.4 (active)

With ZCWPW1 (zinc finger CW-type and PWWP domain containing 1), technical replicate 2, what was measured?
viability, normalised (%): 54.7 (active)

What did the screen give for ZCWPW1 (zinc finger CW-type and PWWP domain containing 1), technical replicate 3?
viability, normalised (%): 67 (active)

For NCOA2 (nuclear receptor coactivator 2), technical replicate 1, how do the results read?
viability, normalised (%): 58.1 (active)

With NCOA2 (nuclear receptor coactivator 2), technical replicate 2, what does the deposit list?
viability, normalised (%): 52.3 (active)

How did the screen score NCOA2 (nuclear receptor coactivator 2), technical replicate 3?
viability, normalised (%): 54.8 (active)

For DDX51 (DEAD-box helicase 51), technical replicate 1, how do the results read?
viability, normalised (%): 39.8 (active)

What did the screen give for DDX51 (DEAD-box helicase 51), technical replicate 2?
viability, normalised (%): 57.6 (active)

What did the screen give for DDX51 (DEAD-box helicase 51), technical replicate 3?
viability, normalised (%): 58.4 (active)

In a second layout: results already given
{"gene symbol": "STK40 (serine/threonine kinase 40)", "technical replicate": "3", "viability, normalised (%)": 112}
{"gene symbol": "MAPK13 (mitogen-activated protein kinase 13)", "technical replicate": "1", "viability, normalised (%)": 96.2}
